Laboratory results as given in PubChem BioAssay AID504834 (National Center for Advancing Translational Sciences (NCATS), 2011).
Out of some 320,000 compounds screened, about 22,000 (6.9%) were called active. The inconclusive results got no clear call from the source; some entries with a clear call stand among them for comparison. Calls come from the whole dose curve; as a rule, active = well fitted inhibition curve with a large enough effect; inconclusive = small, poorly fitted or top-dose-only effect, or another doubt; inactive = no such curve, though single readings can be large or run the other way. Where the call is inconclusive, the potency comes from a doubtful curve fit. Where a SMILES comes first, the peptide text is derived from it. [ ]: non-standard residue; d: D form. ξ: configuration not given here. ξM = CSCCC(N)C(=O)O

Test: Primary qHTS for delayed death inhibitors of the malarial parasite plastid, 96 hour incubation
Conditions: P. falciparum luciferase reporter growth; series mostly up to 28.7 µM
Outline: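 Two-generation exposure (96 h) targets delayed-death phenotype. Reporter parasites carrying integrated firefly luciferase, in red cells at 2% hematocrit and 0.05% parasitemia final, kept at 37 C, 5% CO2; luminescence loss indicates inhibition.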
Potency is the fitted concentration of half-maximal effect.

Compound	Potency
O=C(Nc1ccc(Br)cc1)C1OCCc2ccccc21 (stereo unspecified)	inconclusive: 8.28 µM [inhibitor, partial curve]
CC(C)(C)C(=O)N1CCN(CCN2C(=O)c3cccc4cccc(c34)C2=O)CC1	inactive
CC(=O)O[C@@H]1[C@H]2[C@@H](C[C@@H](C)[C@@H]3CCC(=O)[C@@]13C)OC(=O)[C@@H]2C	inactive
COc1ccc(N2CCN(C(=O)c3cc(C)on3)CC2)cc1	inconclusive: 13.1 µM [inhibitor, partial curve]
Cc1ccc(-n2nc3c(=O)n(CC(=O)NCc4ccccn4)nc(C)c3c2C)cc1	inconclusive: 9.28 µM [inhibitor, single point]
CC(C)CC(=O)Nc1nc(-c2ccc(S(=O)(=O)N3CCOCC3)cc2)cs1	inconclusive: 8.28 µM [inhibitor, partial curve, poor fit]
Cc1ccc(CNC(=O)Cn2c(=O)c3sccc3n(Cc3cccc([N+](=O)[O-])c3)c2=O)cc1	active: 8.28 µM
Cn1c(=O)c2nc(Cl)c(-c3ccccc3)nc2n(C)c1=O	inconclusive: 2.94 µM [inhibitor, single point]
COC(=O)c1sc2nc(C)nc(SCC(=O)C(C)(C)C)c2c1C	inconclusive: 18.5 µM [inhibitor, single point]
O=c1nc2s/c(=C\c3ccc(-c4ccccc4[N+](=O)[O-])o3)c(=O)n2nc1-c1ccccc1	inactive
NC(=O)c1oc2ccccc2c1NC(=O)CN1CCCCC1	inconclusive: 18.5 µM [inhibitor, single point]
Cc1ccc(/C=C2\SC(=S)N(CCCC(=O)Nc3cc(C)on3)C2=O)cc1	inconclusive: 9.28 µM [inhibitor, partial curve, poor fit]
Cc1nnc(NC(=O)c2ccc(S(=O)(=O)N(C)Cc3ccccc3)cc2)o1	inconclusive: 11.7 µM [inhibitor, single point]
CCOC(=O)c1oc2ccccc2c1NC(=O)c1ccc(S(=O)(=O)N2CCCC2)cc1	inconclusive: 13.1 µM [inhibitor, partial curve, poor fit]
Cn1c(O)c(N=NC(=S)Nc2ccccc2F)c2cc(S(=O)(=O)N3CCOCC3)ccc21	inconclusive: 18.5 µM [inhibitor, single point]
O=C(NCc1cccs1)C(=O)NCC(c1ccco1)N1CCN(c2ccc(F)cc2)CC1 (stereo unspecified)	inconclusive: 0.465 µM [inhibitor, full curve, poor fit]
COc1ccccc1N1CCN(C2CCCN(C(=O)CC(F)(F)F)C2)CC1 (stereo unspecified)	inactive
Cc1ccc(NC(=O)CCC(=O)N/N=C/c2cc([N+](=O)[O-])ccc2O)cc1	inconclusive: 2.33 µM [inhibitor, full curve, poor fit]
Cc1cc(C)cc(N2C(N)=NC(N)=NC2c2cccc(Cl)c2)c1 (stereo unspecified)	inactive
COCCCn1c(-c2ccccc2)nc2ccccc2c1=O	inactive
COC(=O)CNC(=O)C(CCSC)NC(C)=O (stereo unspecified) (Ac-[ξM]-Gly-OMe)	inconclusive: 11.7 µM [inhibitor, single point]
N/C(CN1CCCC1=O)=N\OC(=O)c1ccc(Cl)cc1	active: 11.7 µM
CC1(C)CCC(C)(C)c2cc(NC(=O)c3ccc(C(=O)O)cc3)ccc21	inactive
O=C(c1ccc(Cl)s1)N1CCN(c2ccccc2)CC1	inconclusive: 6.57 µM [inhibitor, partial curve, poor fit]

Compound	Potency
NC(=O)C1(N2CCCCC2)CCN(c2nc(-c3ccc(Br)cc3)cs2)CC1	inconclusive: 8.28 µM [inhibitor, partial curve, poor fit]
CCN(CC)CCNCc1cc(Br)ccc1OCC(=O)NCc1ccccc1	active: 11.7 µM
O=C(O)C1C2CCC(O2)C1C(=O)Nc1cccc(Cl)c1 (stereo unspecified)	inactive
Nc1nn(-c2ccccc2)nc1C(=O)OCc1ccccc1	inactive
Cc1ccccc1CNc1ncnc2cc(Cl)ccc12	inconclusive: 11.7 µM [inhibitor, single point]
CC(C)OP(=O)(c1ccc(N(C)C)cc1)C(O)c1ccc(C(C)C)cc1 (stereo unspecified)	inconclusive: 11.7 µM [inhibitor, single point]
COc1ccc(CCNc2oc(COc3ccccc3F)nc2C#N)cc1	inconclusive: 18.5 µM [inhibitor, single point]
C=CCN=C(NC#N)SCC(=O)NC(C)(C)C	inactive
CCc1ccc(C2CC(=O)N3CN(c4ccccc4)CSC3=C2C#N)cc1 (stereo unspecified)	inactive
COc1ccc(CCNC(=O)C2CC(=O)N(c3ccc(C(C)(C)C)cc3)C2)cc1OC (stereo unspecified)	inactive
CCC(CC)NC(=O)c1nn(Cc2ccccc2)c(=O)c2ccccc12	inconclusive: 13.1 µM [inhibitor, single point]
Cn1nnc(-c2ccc(OCc3ccccc3F)cc2)n1	inactive
Cc1cccc(NC(=O)CN(C)S(=O)(=O)c2ccc(-c3ccc(=O)[nH]n3)s2)c1C	inactive
CCOc1ccc(N2C(=O)CC(Sc3ccccc3C(=O)O)C2=O)c([N+](=O)[O-])c1 (stereo unspecified)	inactive
COc1ccc(NC(=S)NCCC(c2ccccc2)c2ccccc2)c(OC)c1	inconclusive: 18.5 µM [inhibitor, single point]
N[C@@H](Cc1cc(I)c(Oc2cc(I)c(O)c(I)c2)c(I)c1)C(=O)O	inconclusive: 12 µM [inhibitor, partial curve, poor fit]
CC(C)CCNC(=O)c1ccc(Cl)c(NC(=O)c2ccccc2F)c1	inactive
NCCc1cc(O)c(O)cc1O	inconclusive: 5.36 µM [inhibitor, partial curve, poor fit]
O=[N+]([O-])c1ccc2c(c1)C(O)n1ncnc1S2 (stereo unspecified)	inconclusive: 18.5 µM [inhibitor, single point]
COc1ccc(CNC(=O)c2c(C)nc3ccccn23)cc1	inconclusive: 11.7 µM [inhibitor, partial curve, poor fit]
CCCC(=O)NC(=S)Nc1ccc(S(=O)(=O)Nc2ccc(OCC)cc2)cc1	inconclusive: 18.5 µM [inhibitor, single point]
O=C(NCC1CCCO1)c1ccc(COc2ccccc2Br)cc1 (stereo unspecified)	inactive
O=C(NCCc1c[nH]c2ccccc12)/C(=C\c1cccnc1)NC(=O)c1ccccc1Br	inconclusive: 5.22 µM [inhibitor, partial curve]
COC(=O)C1=C(C(=O)OC)[C@@H]2N(C)c3ccc(OC)cc3[C@@]23C[C@@H](C(=O)OC)N(C(=O)C2CCC2)C3=N1	inactive

Compound	Potency
NC(=O)CSc1nc2ccccc2n1Cc1ccccc1F	inconclusive: 11.7 µM [inhibitor, partial curve, poor fit]
COCc1nnc(NC(=O)c2sc3ccccc3c2Cl)s1	inconclusive: 1.04 µM [inhibitor, full curve, poor fit]
O=C(CN1C(=O)NC2(CCc3ccccc3C2)C1=O)Nc1ccc(Cl)cc1F (stereo unspecified)	inactive
CCOc1cccc(N(C(=O)c2ccco2)C(C(=O)NC2CCCC2)c2cccnc2)c1 (stereo unspecified)	inactive
CN(CCc1ccccn1)C(=O)CC1C(=O)NCCN1Cc1cccc(F)c1 (stereo unspecified)	inactive
CS(=O)(=O)c1ccc2nc(NC(=O)C3CCCCC3)sc2c1	inconclusive: 18.5 µM [inhibitor, single point]
CC1CCCC(NC2CCCCNC2=O)C1 (stereo unspecified)	inconclusive: 7.38 µM [inhibitor, partial curve, poor fit]
CCc1cc(-c2[nH]ncc2-c2ccc([N+](=O)[O-])cc2)c(O)cc1OC	inactive
NC(=O)Cn1nc([N+](=O)[O-])nc1Oc1ccccc1F	inconclusive: 18.5 µM [inhibitor, single point]
O=C(C1CCCN(S(=O)(=O)c2cc(Cl)ccc2Cl)C1)N1CCCCCC1 (stereo unspecified)	inconclusive: 13.1 µM [inhibitor, single point]
CC(=O)Nc1ccc(S[C@@H](CCN2CC[C@H](O)CCC2=O)c2ccccc2)cc1	inconclusive: 16.5 µM [inhibitor, single point]
O=c1c(-c2nnc(SCc3ccc(Cl)cc3)o2)cccn1Cc1ccccc1	active: 13.1 µM
COc1ccc([N+](=O)[O-])cc1NC1CCN(C(=O)c2cccs2)CC1	inconclusive: 2.33 µM [inhibitor, full curve, poor fit]
CCCn1cnc2c(oc3ccccc32)c1=O	inconclusive: 11.7 µM [inhibitor, partial curve]
COc1ccccc1N1CCN(C(=O)c2ccccc2N(C)S(=O)(=O)c2ccc(C)cc2)CC1	inconclusive: 18.5 µM [inhibitor, single point]
Cc1sc(NC(=O)c2ccc3ncsc3c2)c(C(N)=O)c1C	inactive
NS(=O)(=O)c1ccc(CCNCc2cc(Br)ccc2OCc2ccccc2F)cc1	inconclusive: 18.5 µM [inhibitor, single point]
Cc1ccc(C)c(N2CCN(C(=O)C3CCCN(c4ncnc5c4nc4n5CCCCC4)C3)CC2)c1 (stereo unspecified)	inconclusive: 4.65 µM [inhibitor, partial curve, poor fit]
COc1ccccc1CSc1nc2ccccc2[nH]1	inactive
O=S(=O)(c1ccc2oc3ccc(S(=O)(=O)N4CCCCC4)cc3c2c1)N1CCCCC1	inconclusive: 3.7 µM [inhibitor, partial curve, poor fit]
Cc1cc(Nc2ccccc2)nn1C(=O)c1ccc([N+](=O)[O-])cc1	active: 9.28 µM
CC(C)CN(C(=O)COC(=O)c1nc(Cl)ccc1Cl)C1CCS(=O)(=O)C1 (stereo unspecified)	inactive
CCN(CC)C(=S)SCC(=O)c1ccc(F)cc1	inactive

3 structures already listed, sorted by heavy-atom count, ascending.
Compound	Potency
NC(=O)Cn1nc([N+](=O)[O-])nc1Oc1ccccc1F	inconclusive: 18.5 µM [inhibitor, single point]
CCc1cc(-c2[nH]ncc2-c2ccc([N+](=O)[O-])cc2)c(O)cc1OC	inactive
CC(=O)Nc1ccc(S[C@@H](CCN2CC[C@H](O)CCC2=O)c2ccccc2)cc1	inconclusive: 16.5 µM [inhibitor, single point]
